This test concerns the target His6-tagged Connectase from M. mazei (wild type) (M. mazei). Nature of the test: affinity purification with mass spectrometry.

These are yes or no findings as the source states them, for the method shown. In cells and extracts the contact can be indirect. A yes stands for co-enrichment or nearness to the bait. Other partners may have been found.

B1: methyltransferase A (MtrA) in whole cell extract (protein, UniProt P80184 1-238)
chain: MVEKKSPAEGWPVVNGDYIVGDPESPVAATTLASHIEDIPVEAGAAIAGPCKTENLGIEKMIANLISNPNIRFLILCGSEVQGHITGQSIEALHQNGVDPDKRNIIGATGAIPYIENIPDEGIERFQKQLEIVNLIDVEDADAIKAKVKECIEKDPGAFEEEAMIIKVEEGGEEEEGEEVKPVAPETALIEARMRNIQTQVKMIGSTNRMFAGMYSGKVQGIMIGLAFTLTLGILLLV
Turning to B1, the binding result is listed as “binds”.
